End groups of sequences in plain letters are not given here. No end group written: not given here.
Test: peptide made by a vendor
Conditions: whole synthesis

## APGLWamide
  purity (crude or final not stated): 90.7%

## APPGNGEGEAGFIPWFS-NH2
  purity (crude or final not stated): 91.5%

## APRGGRDAPRG-NH2
  purity (crude or final not stated): 90.1%

## APRGGRSLLDLLAAPRG-NH2
  purity (crude or final not stated): 94.6%

## EIQPGNMKVWSDPF
  purity (crude or final not stated): 89.7%

## FFKAamide
  purity (crude or final not stated): 95.1%

## FLRNamide
  purity (crude or final not stated): 95.2%

## FPPGFHRP-NH2
  purity (crude or final not stated): 87.1%

## FYRVamide
  purity (crude or final not stated): 96.9%

## GPPGLW-NH2
  purity (crude or final not stated): 96.1%

## GPPM(ox)IKIPVRHamide
  purity (crude or final not stated): 98.1%

## GPPMIKIPVRH-NH2
  purity (crude or final not stated): 95.9%

## GPPPIYLPVRP-NH2
  purity (crude or final not stated): 97.9%

## GPPQGLRW-NH2
  purity (crude or final not stated): 97%

## GPRGGRATEFGPRG-NH2
  purity (crude or final not stated): 92.5%

## GPRGGREVNLEGPRG-NH2
  purity (crude or final not stated): 93.6%

## GPRGGRSYDGPRG-NH2
  purity (crude or final not stated): 92%

## GPRGamide
  purity (crude or final not stated): 90.6%

## GYYRDNIQETRQYLDPRP-NH2
  purity (crude or final not stated): 97.4%

## IPPQGFRFSQW-NH2
  purity (crude or final not stated): 98.7%

## IPPQGLRFNQW-NH2
  purity (crude or final not stated): 96.2%

## KGIKQEEIQPGNMKVWSDPF
  purity (crude or final not stated): 91.6%

## LPPRFGGQI-NH2
  purity (crude or final not stated): 85.4%

## MPEQDANPQTRFD-NH2
  purity (crude or final not stated): 97.6%

## NPPIDLGPAYFHIR-NH2
  purity (crude or final not stated): 91.9%

## NPPQPPFRIPI-NH2
  purity (crude or final not stated): 88.7%

## QPGNMKVWSDPF
  purity (crude or final not stated): 85%

## RSNRVVIHTGANPTMAPLRIPF-NH2
  purity (crude or final not stated): 85.2%

## SPKPPGLW-NH2
  purity (crude or final not stated): 96.5%

## SPPQWKLDSSPPQW
  purity (crude or final not stated): 93%

## SPWSCSLRP-NH2
  purity (crude or final not stated): 95.4%

## SPWSYSLRP-NH2
  purity (crude or final not stated): 98.8%

## TPPSNI-NH2
  purity (crude or final not stated): 97.4%

## WPPRPamide
  purity (crude or final not stated): 97.5%

## YPPFLELGQPSYFHIR-NH2
  purity (crude or final not stated): 99.3%

## YPPLNTV-NH2
  purity (crude or final not stated): 95.3%

## pyrQAGAPGLWamide
  purity (crude or final not stated): 89.9%

## pyrQAGPPGLWamide
  purity (crude or final not stated): 90.1%

## pyrQAKLNKGWESANYDKGWA
  purity (crude or final not stated): 95.7%

## pyrQAMQWGHKGWA
  purity (crude or final not stated): 89.9%

## pyrQC(dis)PPGLWGC(dis)
  purity (crude or final not stated): 96%

## pyrQCPPGLWGC
  purity (crude or final not stated): 87.9%

## pyrQDAFLPKPRPamide
  purity (crude or final not stated): 98.5%

## pyrQETDGESLKKAEEEFV
  purity (crude or final not stated): 89.2%

## pyrQGGLRWamide
  purity (crude or final not stated): 92.6%

## pyrQGLMFRPamide
  purity (crude or final not stated): 95.8%

## pyrQGLRWamide
  purity (crude or final not stated): 98.8%

## pyrQGRFGREDQGRFamide
  purity (crude or final not stated): 87.3%

## pyrQGRFamide
  purity (crude or final not stated): 97.6%

## pyrQITRFamide
  purity (crude or final not stated): 97%

## pyrQLFRPamide
  purity (crude or final not stated): 90%

## pyrQLIFRPamide
  purity (crude or final not stated): 98.9%

## pyrQLPSVSEVSENDVASLLRE
  purity (crude or final not stated): 95.7%

## pyrQMPNMVPFHamide
  purity (crude or final not stated): 89%

## pyrQNGHC(dis)PPGLWLC(dis)KANTRL
  purity (crude or final not stated): 92.6%

## pyrQNGHCPPGLWLCKANTRL
  purity (crude or final not stated): 95.9%

## pyrQPPFRIPIamide
  purity (crude or final not stated): 97.5%

## pyrQPPLDLGPAYFHIRamide
  purity (crude or final not stated): 97.2%

## pyrQPPLSHLSamide
  purity (crude or final not stated): 97.9%

## pyrQPPYLDLGEPSFFHIRamide
  purity (crude or final not stated): 98.2%

## pyrQPPYLDLTPAYFHIRamide
  purity (crude or final not stated): 96.1%

## pyrQPYFHTDNSPNRFamide
  purity (crude or final not stated): 96.7%

## pyrQYLDPRPamide
  purity (crude or final not stated): 94.2%
